# Reference: article PMC13304329
# Amino acid sequences for entries named in this document (tags omitted).
# UniProt Q5S007: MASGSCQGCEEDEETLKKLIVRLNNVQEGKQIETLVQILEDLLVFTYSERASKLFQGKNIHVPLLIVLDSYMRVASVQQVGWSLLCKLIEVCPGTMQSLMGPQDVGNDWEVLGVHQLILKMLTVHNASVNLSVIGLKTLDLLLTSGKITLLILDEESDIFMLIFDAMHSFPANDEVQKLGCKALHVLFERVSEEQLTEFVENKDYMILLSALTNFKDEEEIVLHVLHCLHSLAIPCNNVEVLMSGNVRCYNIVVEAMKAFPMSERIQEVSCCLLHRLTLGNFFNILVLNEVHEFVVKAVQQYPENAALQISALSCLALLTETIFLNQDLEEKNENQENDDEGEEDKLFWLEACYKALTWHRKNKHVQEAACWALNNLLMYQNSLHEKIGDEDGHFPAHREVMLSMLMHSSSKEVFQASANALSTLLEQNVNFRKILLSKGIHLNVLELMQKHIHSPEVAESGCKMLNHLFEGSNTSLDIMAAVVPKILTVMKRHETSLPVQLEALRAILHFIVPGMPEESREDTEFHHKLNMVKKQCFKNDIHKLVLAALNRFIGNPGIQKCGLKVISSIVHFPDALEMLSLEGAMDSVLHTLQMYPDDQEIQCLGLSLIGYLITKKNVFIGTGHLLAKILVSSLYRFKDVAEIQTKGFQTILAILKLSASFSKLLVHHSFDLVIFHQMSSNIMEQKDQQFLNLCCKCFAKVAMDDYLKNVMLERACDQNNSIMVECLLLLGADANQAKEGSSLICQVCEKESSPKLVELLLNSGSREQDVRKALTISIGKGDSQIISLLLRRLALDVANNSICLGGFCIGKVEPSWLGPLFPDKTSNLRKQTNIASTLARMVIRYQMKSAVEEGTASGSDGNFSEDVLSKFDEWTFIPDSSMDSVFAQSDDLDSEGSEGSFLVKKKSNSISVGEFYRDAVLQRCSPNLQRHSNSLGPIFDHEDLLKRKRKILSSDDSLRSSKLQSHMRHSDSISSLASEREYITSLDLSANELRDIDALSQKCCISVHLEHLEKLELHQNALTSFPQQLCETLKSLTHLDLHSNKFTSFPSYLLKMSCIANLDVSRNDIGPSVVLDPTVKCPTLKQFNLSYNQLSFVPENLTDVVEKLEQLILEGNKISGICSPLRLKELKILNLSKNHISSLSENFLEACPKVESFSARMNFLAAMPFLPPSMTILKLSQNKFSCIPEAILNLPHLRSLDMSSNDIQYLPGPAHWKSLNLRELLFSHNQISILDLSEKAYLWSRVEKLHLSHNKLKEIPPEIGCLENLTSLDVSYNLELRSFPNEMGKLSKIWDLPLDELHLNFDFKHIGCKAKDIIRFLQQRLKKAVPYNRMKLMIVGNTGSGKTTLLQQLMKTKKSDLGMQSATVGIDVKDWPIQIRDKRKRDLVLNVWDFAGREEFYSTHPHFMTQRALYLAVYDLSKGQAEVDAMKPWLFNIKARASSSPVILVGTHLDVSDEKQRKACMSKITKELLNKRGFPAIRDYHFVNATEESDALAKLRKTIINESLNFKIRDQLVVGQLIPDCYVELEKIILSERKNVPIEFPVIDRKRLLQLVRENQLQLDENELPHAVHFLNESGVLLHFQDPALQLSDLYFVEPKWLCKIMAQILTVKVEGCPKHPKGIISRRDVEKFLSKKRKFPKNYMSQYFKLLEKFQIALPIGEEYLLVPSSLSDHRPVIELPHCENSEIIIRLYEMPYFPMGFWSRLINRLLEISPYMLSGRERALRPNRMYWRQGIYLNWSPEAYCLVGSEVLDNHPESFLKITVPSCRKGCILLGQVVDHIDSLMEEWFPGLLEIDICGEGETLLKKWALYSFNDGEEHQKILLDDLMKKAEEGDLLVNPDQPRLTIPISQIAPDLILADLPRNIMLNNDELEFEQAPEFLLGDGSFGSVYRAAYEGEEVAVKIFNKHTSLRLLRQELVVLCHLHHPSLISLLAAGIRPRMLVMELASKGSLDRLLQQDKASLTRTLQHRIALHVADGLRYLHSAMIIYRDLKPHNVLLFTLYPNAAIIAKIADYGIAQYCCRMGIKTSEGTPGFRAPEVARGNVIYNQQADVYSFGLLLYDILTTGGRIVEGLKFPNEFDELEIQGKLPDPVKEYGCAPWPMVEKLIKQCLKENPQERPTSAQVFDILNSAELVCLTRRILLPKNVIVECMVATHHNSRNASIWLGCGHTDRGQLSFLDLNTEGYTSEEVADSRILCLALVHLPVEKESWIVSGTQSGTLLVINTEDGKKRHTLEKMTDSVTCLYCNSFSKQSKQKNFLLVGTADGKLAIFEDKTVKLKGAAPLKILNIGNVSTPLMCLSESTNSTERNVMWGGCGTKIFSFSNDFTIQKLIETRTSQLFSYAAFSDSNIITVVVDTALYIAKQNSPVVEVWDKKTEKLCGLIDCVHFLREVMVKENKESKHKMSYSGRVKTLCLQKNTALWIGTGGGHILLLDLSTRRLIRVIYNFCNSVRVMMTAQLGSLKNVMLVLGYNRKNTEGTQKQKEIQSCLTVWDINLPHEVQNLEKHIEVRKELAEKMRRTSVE
# UniProt Q9UHB6: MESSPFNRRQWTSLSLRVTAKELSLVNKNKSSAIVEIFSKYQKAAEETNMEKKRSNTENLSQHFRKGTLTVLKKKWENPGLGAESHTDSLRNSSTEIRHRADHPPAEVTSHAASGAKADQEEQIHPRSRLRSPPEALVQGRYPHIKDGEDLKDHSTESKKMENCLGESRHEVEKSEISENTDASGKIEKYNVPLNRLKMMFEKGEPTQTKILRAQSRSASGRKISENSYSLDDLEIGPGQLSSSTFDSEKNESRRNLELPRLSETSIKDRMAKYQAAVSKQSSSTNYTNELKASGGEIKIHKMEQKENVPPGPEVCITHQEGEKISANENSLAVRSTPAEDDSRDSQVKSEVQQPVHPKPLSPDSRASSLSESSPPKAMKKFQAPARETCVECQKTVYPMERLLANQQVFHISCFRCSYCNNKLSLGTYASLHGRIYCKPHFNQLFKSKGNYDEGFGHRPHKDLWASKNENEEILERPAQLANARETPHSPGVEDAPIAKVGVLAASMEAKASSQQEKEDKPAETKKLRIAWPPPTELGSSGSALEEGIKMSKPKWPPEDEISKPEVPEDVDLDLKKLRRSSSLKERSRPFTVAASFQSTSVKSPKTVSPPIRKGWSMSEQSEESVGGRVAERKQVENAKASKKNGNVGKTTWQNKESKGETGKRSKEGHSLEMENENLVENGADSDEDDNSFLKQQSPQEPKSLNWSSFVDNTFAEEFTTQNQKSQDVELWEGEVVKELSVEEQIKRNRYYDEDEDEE
# B1: SNAP47 (protein, UniProt Q5SQN1 1-464)
# chain: MRAARRGLHCAGAERPRRRGRLWDSSGVPQRQKRPGPWRTQTQEQMSRDVCIHTWPCTYYLEPKRRWVTGQLSLTSLSLRFMTDSTGEILVSFPLSSIVEIKKEASHFIFSSITILEKGHAKHWFSSLRPSRNVVFSIIEHFWRELLLSQPGAVADASVPRTRGEELTGLMAGSQKRLEDTARVLHHQGQQLDSVMRGLDKMESDLEVADRLLTELESPAWWPFSSKLWKTPPETKPREDVSMTSCEPFGKEGILIKIPAVISHRTESHVKPGRLTVLVSGLEIHDSSSLLMHRFEREDVDDIKVHSPYEISIRQRFIGKPDMAYRLISAKMPEVIPILEVQFSKKMELLEDALVLRSARTSSPAEKSCSVWHAASGLMGRTLHREPPAGDQEGTALHLQTSLPALSEADTQELTQILRRMKGLALEAESELERQDEALDGVAAAVDRATLTIDKHNRRMKRLT
# B2: Centrosomal protein of 85 kDa (protein, UniProt Q6P2H3 1-762)
# chain: MAMQEKYPTEGISHVTSPSSDVIQKGSSLGTEWQTPVISEPFRSRFSRCSSVADSGDTAIGTSCSDIAEDFCSSSGSPPFQPIKSHVTIPTAHVMPSTLGTSPAKPNSTPVGPSSSKLPLSGLAESVGMTRNGDLGAMKHSPGLSRDLMYFSGATGENGIEQSWFPAVGHERQEEARKFDIPSMESTLNQSAMMETLYSDPHHRVRFHNPRTSTSKELYRVLPEAKKAPGSGAVFERNGPHSNSSGVLPLGLQPAPGLSKPLPSQVWQPSPDTWHPREQSCELSTCRQQLELIRLQMEQMQLQNGAICHHPAAFGPSLPILEPAQWISILNSNEHLLKEKELLIDKQRKHISQLEQKVRESELQVHSALLGRPAPFGDVCLLRLQELQRENTFLRAQFAQKTEALSREKIDLEKKLSASEVEVQLIRESLKVALQKHSEEVKKQEERVKGRDKHINNLKKKCQKESEQNREKQQRIETLERYLADLPTLEDHQKQSQQLKDSELKSTELQEKVTELESLLEETQAICREKEIQLESLRQREAEFSSAGHSLQDKQSVEETSGEGPEVEMESWQKRYDSLQKIVEKQQQKMDQLRSQVQSLEQEVAQEEGTSQALREEAQRRDSALQQLRTAVKELSVQNQDLIEKNLTLQEHLRQAQPGSPPSPDTAQLALELHQELASCLQDLQAVCSIVTQRAQGHDPNLSLLLGIHSAQHPETQLDLQKPDVIKRKLEEVQQLRRDIEDLRTTMSDRYAQDMGENCVTQ
# B3: Dermcidin (protein, UniProt P81605 20-110)
# chain: YDPEAASAPGSGNPCHEASAAQKENAGEDPGLARQAPKPRKQRSSLLEKGLDGAKKAVGGLGKLGKDAVEDLESVGKGAVHDVKDVLDSVL
# B4: Centrosomal protein of 131 kDa (protein, UniProt Q9UPN4 1-1083)
# chain: MKGTRAIGSVPERSPAGVDLSLTGLPPPVSRRPGSAATTKPIVRSVSVVTGSEQKRKVLEATGPGGSQAINNLRRSNSTTQVSQPRSGSPRPTEPTDFLMLFEGSPSGKKRPASLSTAPSEKGATWNVLDDQPRGFTLPSNARSSSALDSPAGPRRKECTVALAPNFTANNRSNKGAVGNCVTTMVHNRYTPSERAPPLKSSNQTAPSLNNIIKAATCEGSESSGFGKLPKNVSSATHSARNNTGGSTGLPRRKEVTEEEAERFIHQVNQATVTIQRWYRHQVQRRGAGAARLEHLLQAKREEQRQRSGEGTLLDLHQQKEAARRKAREEKARQARRAAIQELQQKRALRAQKASTAERGPPENPRETRVPGMRQPAQELSPTPGGTAHQALKANNTGGGLPAAGPGDRCLPTSDSSPEPQQPPEDRTQDVLAQDAAGDNLEMMAPSRGSAKSRGPLEELLHTLQLLEKEPDVLPRPRTHHRGRYAWASEVTTEDDASSLTADNLEKFGKLSAFPEPPEDGTLLSEAKLQSIMSFLDEMEKSGQDQLDSQQEGWVPEAGPGPLELGSEVSTSVMRLKLEVEEKKQAMLLLQRALAQQRDLTARRVKETEKALSRQLQRQREHYEATIQRHLAFIDQLIEDKKVLSEKCEAVVAELKQEDQRCTERVAQAQAQHELEIKKLKELMSATEKARREKWISEKTKKIKEVTVRGLEPEIQKLIARHKQEVRRLKSLHEAELLQSDERASQRCLRQAEELREQLEREKEALGQQERERARQRFQQHLEQEQWALQQQRQRLYSEVAEERERLGQQAARQRAELEELRQQLEESSSALTRALRAEFEKGREEQERRHQMELNTLKQQLELERQAWEAGRTRKEEAWLLNREQELREEIRKGRDKEIELVIHRLEADMALAKEESEKAAESRIKRLRDKYEAELSELEQSERKLQERCSELKGQLGEAEGENLRLQGLVRQKERALEDAQAVNEQLSSERSNLAQVIRQEFEDRLAASEEETRQAKAELATLQARQQLELEEVHRRVKTALARKEEAVSSLRTQHEAAVKRADHLEELLEQHRRPTPSTK
# B5: Deubiquitinating protein VCPIP1 (enzyme, UniProt Q96JH7 1-1222)
# chain: MSQPPPPPPPLPPPPPPPEAPQTPSSLASAAASGGLLKRRDRRILSGSCPDPKCQARLFFPASGSVSIECTECGQRHEQQQLLGVEEVTDPDVVLHNLLRNALLGVTGAPKKNTELVKVMGLSNYHCKLLSPILARYGMDKQTGRAKLLRDMNQGELFDCALLGDRAFLIEPEHVNTVGYGKDRSGSLLYLHDTLEDIKRANKSQECLIPVHVDGDGHCLVHAVSRALVGRELFWHALRENLKQHFQQHLARYQALFHDFIDAAEWEDIINECDPLFVPPEGVPLGLRNIHIFGLANVLHRPIILLDSLSGMRSSGDYSATFLPGLIPAEKCTGKDGHLNKPICIAWSSSGRNHYIPLVGIKGAALPKLPMNLLPKAWGVPQDLIKKYIKLEEDGGCVIGGDRSLQDKYLLRLVAAMEEVFMDKHGIHPSLVADVHQYFYRRTGVIGVQPEEVTAAAKKAVMDNRLHKCLLCGALSELHVPPEWLAPGGKLYNLAKSTHGQLRTDKNYSFPLNNLVCSYDSVKDVLVPDYGMSNLTACNWCHGTSVRKVRGDGSIVYLDGDRTNSRSTGGKCGCGFKHFWDGKEYDNLPEAFPITLEWGGRVVRETVYWFQYESDSSLNSNVYDVAMKLVTKHFPGEFGSEILVQKVVHTILHQTAKKNPDDYTPVNIDGAHAQRVGDVQGQESESQLPTKIILTGQKTKTLHKEELNMSKTERTIQQNITEQASVMQKRKTEKLKQEQKGQPRTVSPSTIRDGPSSAPATPTKAPYSPTTSKEKKIRITTNDGRQSMVTLKSSTTFFELQESIAREFNIPPYLQCIRYGFPPKELMPPQAGMEKEPVPLQHGDRITIEILKSKAEGGQSAAAHSAHTVKQEDIAVTGKLSSKELQEQAEKEMYSLCLLATLMGEDVWSYAKGLPHMFQQGGVFYSIMKKTMGMADGKHCTFPHLPGKTFVYNASEDRLELCVDAAGHFPIGPDVEDLVKEAVSQVRAEATTRSRESSPSHGLLKLGSGGVVKKKSEQLHNVTAFQGKGHSLGTASGNPHLDPRARETSVVRKHNTGTDFSNSSTKTEPSVFTASSSNSELIRIAPGVVTMRDGRQLDPDLVEAQRKKLQEMVSSIQASMDRHLRDQSTEQSPSDLPQRKTEVVSSSAKSGSLQTGLPESFPLTGGTENLNTETTDGCVADALGAAFATRSKAQRGNSVEELEEMDSQDAEMTNTTEPMDHS
# B6: TRMT1-like protein (protein, UniProt Q7Z2T5 1-733)
# chain: MENMAEEELLPLEKEEVEVAQVQVPTPARDSAGVPAPAPDSALDSAPTPASAPAPAPALAQAPALSPSLASAPEEAKSKRHISIQRQLADLENLAFVTDGNFDSASSLNSDNLDAGNRQACPLCPKEKFRACNSHKLRRHLQNLHWKVSVEFEGYRMCICHLPCRPVKPNIIGEQITSKMGAHYHCIICSATITRRTDMLGHVRRHMNKGETKSSYIAASTAKPPKEILKEADTDVQVCPNYSIPQKTDSYFNPKMKLNRQLIFCTLAALAEERKPLECLDAFGATGIMGLQWAKHLGNAVKVTINDLNENSVTLIQENCHLNKLKVVVDSKEKEKSDDILEEGEKNLGNIKVTKMDANVLMHLRSFDFIHLDPFGTSVNYLDSAFRNIRNLGIVSVTSTDISSLYAKAQHVARRHYGCNIVRTEYYKELAARIVVAAVARAAARCNKGIEVLFAVALEHFVLVVVRVLRGPTSADETAKKIQYLIHCQWCEERIFQKDGNMVEENPYRQLPCNCHGSMPGKTAIELGPLWSSSLFNTGFLKRMLFESLHHGLDDIQTLIKTLIFESECTPQSQFSIHASSNVNKQEENGVFIKTTDDTTTDNYIAQGKRKSNEMITNLGKKQKTDVSTEHPPFYYNIHRHSIKGMNMPKLKKFLCYLSQAGFRVSRTHFDPMGVRTDAPLMQFKSILLKYSTPTYTGGQSESHVQSASEDTVTERVEMSVNDKAEASGCRRW
# B7: Centrosomal protein of 85 kDa-like (protein, UniProt Q5SZL2 1-805)
# chain: MWGRFLAPEASGRDSPGGARSFPAGPDYSSAWLPANESLWQATTVPSNHRNNHIRRHSIASDSGDTGIGTSCSDSVEDHSTSSGTLSFKPSQSLITLPTAHVMPSNSSASISKLRESLTPDGSKWSTSLMQTLGNHSRGEQDSSLDMKDFRPLRKWSSLSKLTAPDNCGQGGTVCREESRNGLEKIGKAKALTSQLRTIGPSCLHDSMEMLRLEDKEINKKRSSTLDCKYKFESCSKEDFRASSSTLRRQPVDMTYSALPESKPIMTSSEAFEPPKYLMLGQQAVGGVPIQPSVRTQMWLTEQLRTNPLEGRNTEDSYSLAPWQQQQIEDFRQGSETPMQVLTGSSRQSYSPGYQDFSKWESMLKIKEGLLRQKEIVIDRQKQQITHLHERIRDNELRAQHAMLGHYVNCEDSYVASLQPQYENTSLQTPFSEESVSHSQQGEFEQKLASTEKEVLQLNEFLKQRLSLFSEEKKKLEEKLKTRDRYISSLKKKCQKESEQNKEKQRRIETLEKYLADLPTLDDVQSQSLQLQILEEKNKNLQEALIDTEKKLEEIKKQCQDKETQLICQKKKEKELVTTVQSLQQKVERCLEDGIRLPMLDAKQLQNENDNLRQQNETASKIIDSQQDEIDRMILEIQSMQGKLSKEKLTTQKMMEELEKKERNVQRLTKALLENQRQTDETCSLLDQGQEPDQSRQQTVLSKRPLFDLTVIDQLFKEMSCCLFDLKALCSILNQRAQGKEPNLSLLLGIRSMNCSAEETENDHSTETLTKKLSDVCQLRRDIDELRTTISDRYAQDMGDNCITQ
# B8: Centrosomal protein 43 (protein, UniProt O95684 1-399)
# chain: MAATAAAVVAEEDTELRDLLVQTLENSGVLNRIKAELRAAVFLALEEQEKVENKTPLVNESLKKFLNTKDGRLVASLVAEFLQFFNLDFTLAVFQPETSTLQGLEGRENLARDLGIIEAEGTVGGPLLLEVIRRCQQKEKGPTTGEGALDLSDVHSPPKSPEGKTSAQTTPSKIPRYKGQGKKKTSGQKAGDKKANDEANQSDTSVSLSEPKSKSSLHLLSHETKIGSFLSNRTLDGKDKAGLCPDEDDMEGDSFFDDPIPKPEKTYGLRKEPRKQAGSLASLSDAPPLKSGLSSLAGAPSLKDSESKRGNTVLKDLKLISDKIGSLGLGTGEDDDYVDDFNSTSHRSEKSEISIGEEIEEDLSVEIDDINTSDKLDDLTQDLTVSQLSDVADYLEDVA
# How the values were obtained:
# miniTurbo-LRRK2 (human) = miniTurbo-LRRK2 (human) (UniProt Q5S007); assay: proximity labelling; HEK293 stably expressing mT-LRRK2; 1 uM MLi-2 against DMSO, 1 h prior to and during 2 h of 50 uM biotin; Strep-Tactin enrichment, LC-MSMS, LFQ with FDR-controlled t test
# [1] = molecular target: LRRK2 with an N-terminal BioID tag (BioID1-LRRK2, BioID2-LRRK2 or miniTurbo-LRRK2; pooled 'BioID set') (human) (UniProt Q5S007); assay: proximity labelling; BioID1-, BioID2- or miniTurbo-LRRK2 transiently expressed in HEK293T against the tag-only control; 50 uM biotin (up to 16 h; miniTurbo 2 h after overnight starvation); Strep-Tactin enrichment, LC-MSMS; SAINTexpress and CRAPome filter, hits of the three tags unified ('BioID set')
Molecule,binding (miniTurbo-LRRK2 (human)),binding [1]
LIM domain and actin-binding protein 1 (from UniProt Q9UHB6 1-759),binds,–
B1,–,binds
B2,–,binds
B3,binds,–
B4,binds,–
B5,–,binds
B6,–,binds
B7,–,binds
B8,–,binds

# Results are given in words; binding and its absence hold for the method and conditions named. Binding seen in cells or lysates may run through a third protein. Here binding means that the protein was enriched with, or labelled near, the bait; the list need not be complete.
